Here are results for four substances from paper PMC4739761.

Protein sequences, listed by entry. Tags and fused reporters are not part of them. Lines headed by an entry give the natural chain unless they say otherwise; changes in a name come on top. Chains listed by the source or under a name are the forms on record and can include a tag or linker.
hamster BiP E201G (His6-tagged) (G3I8R9, form named): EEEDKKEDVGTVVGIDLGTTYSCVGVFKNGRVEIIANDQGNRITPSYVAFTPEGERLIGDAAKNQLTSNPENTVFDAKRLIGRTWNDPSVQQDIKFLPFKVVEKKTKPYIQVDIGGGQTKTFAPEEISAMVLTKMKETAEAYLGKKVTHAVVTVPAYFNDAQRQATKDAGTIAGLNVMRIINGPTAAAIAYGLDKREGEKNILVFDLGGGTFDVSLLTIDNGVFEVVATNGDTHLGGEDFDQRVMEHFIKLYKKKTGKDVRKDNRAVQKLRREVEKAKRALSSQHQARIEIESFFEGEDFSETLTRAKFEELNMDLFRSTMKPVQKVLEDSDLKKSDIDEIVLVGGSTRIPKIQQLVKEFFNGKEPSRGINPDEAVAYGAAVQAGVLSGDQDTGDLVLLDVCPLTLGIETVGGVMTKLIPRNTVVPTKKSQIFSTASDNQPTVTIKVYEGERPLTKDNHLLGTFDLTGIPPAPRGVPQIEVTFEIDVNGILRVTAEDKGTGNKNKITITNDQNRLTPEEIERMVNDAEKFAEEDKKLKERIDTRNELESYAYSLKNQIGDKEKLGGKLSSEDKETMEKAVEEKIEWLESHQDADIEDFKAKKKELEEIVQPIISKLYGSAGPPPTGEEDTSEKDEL
hamster BiP T366A (His6-tagged) (Chinese hamster (Cricetulus griseus)) (G3I8R9, form named): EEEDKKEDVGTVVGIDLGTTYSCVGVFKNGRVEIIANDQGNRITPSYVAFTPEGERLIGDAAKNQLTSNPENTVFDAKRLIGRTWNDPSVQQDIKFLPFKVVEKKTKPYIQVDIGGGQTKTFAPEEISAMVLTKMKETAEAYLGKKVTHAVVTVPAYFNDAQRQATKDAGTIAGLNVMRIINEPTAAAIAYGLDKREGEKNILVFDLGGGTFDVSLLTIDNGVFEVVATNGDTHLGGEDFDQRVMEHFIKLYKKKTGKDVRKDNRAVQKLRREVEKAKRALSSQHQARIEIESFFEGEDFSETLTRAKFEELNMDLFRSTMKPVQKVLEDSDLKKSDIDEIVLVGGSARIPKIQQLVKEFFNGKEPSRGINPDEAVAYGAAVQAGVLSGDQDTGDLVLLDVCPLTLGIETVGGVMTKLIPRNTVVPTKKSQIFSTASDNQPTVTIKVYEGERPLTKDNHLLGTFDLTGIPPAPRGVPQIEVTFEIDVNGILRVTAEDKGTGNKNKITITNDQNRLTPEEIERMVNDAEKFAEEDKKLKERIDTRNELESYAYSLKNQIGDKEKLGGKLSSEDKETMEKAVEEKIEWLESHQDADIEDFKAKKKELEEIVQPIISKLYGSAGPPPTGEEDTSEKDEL
hamster BiP T518A (His6-tagged) (G3I8R9, form named): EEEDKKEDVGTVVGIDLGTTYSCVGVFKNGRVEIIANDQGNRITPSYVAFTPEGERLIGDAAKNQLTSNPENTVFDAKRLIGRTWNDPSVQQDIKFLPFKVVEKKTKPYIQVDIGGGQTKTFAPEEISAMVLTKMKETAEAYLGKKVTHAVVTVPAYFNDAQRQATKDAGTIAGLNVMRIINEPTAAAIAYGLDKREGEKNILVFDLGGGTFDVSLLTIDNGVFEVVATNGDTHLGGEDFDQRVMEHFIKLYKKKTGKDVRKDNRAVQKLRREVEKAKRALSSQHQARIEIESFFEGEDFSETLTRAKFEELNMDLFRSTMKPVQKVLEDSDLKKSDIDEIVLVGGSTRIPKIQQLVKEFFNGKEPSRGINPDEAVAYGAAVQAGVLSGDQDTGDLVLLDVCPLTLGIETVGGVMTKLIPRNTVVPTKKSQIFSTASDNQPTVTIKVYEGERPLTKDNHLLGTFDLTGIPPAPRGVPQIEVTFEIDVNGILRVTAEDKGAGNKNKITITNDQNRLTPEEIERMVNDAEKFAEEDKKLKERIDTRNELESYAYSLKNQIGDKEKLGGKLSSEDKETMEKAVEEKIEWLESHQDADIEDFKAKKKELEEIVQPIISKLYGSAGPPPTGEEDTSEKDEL
hamster BiP T518E (His6-tagged) (G3I8R9, form named): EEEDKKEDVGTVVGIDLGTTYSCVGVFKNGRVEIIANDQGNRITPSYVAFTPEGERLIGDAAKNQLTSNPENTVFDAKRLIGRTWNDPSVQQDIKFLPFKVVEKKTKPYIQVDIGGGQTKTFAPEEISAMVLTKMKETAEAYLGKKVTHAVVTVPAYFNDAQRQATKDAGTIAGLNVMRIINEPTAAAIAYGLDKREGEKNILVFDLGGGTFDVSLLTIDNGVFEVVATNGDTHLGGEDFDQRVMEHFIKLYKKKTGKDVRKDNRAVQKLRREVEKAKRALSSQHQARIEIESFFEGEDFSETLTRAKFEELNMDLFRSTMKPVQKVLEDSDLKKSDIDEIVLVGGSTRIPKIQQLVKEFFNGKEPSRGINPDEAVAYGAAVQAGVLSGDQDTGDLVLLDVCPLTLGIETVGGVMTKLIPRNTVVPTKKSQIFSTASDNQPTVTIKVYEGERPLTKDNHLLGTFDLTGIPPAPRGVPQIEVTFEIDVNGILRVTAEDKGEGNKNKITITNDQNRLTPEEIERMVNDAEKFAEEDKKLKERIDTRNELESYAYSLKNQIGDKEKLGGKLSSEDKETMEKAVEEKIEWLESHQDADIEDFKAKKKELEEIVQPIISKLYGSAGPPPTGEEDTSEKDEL

No constants are given. Whether binding was seen depends on the method and setting. Some results given as binding are weak or reduced against the parent protein; the word gives no strength.

Test in all cases: native gel or EMSA; purified His6-tagged BiP proteins (7 µg per lane) on 7.5% Tris-glycine native gels, Coomassie stain; samples in AMPylation buffer with or without 1.5 mM ATP and GST-FICD E234G; both purified
In general terms: A gel shift assay detects complexes by their altered migration in electrophoresis.

Assay [1] addresses hamster BiP E201G (His6-tagged) (Chinese hamster (Cricetulus griseus)) (UniProt G3I8R9).
Assay [2] has as its target hamster BiP T366A (His6-tagged) (Chinese hamster (Cricetulus griseus)) (UniProt G3I8R9).
Assay [3] has as its target hamster BiP T518A (His6-tagged) (Chinese hamster (Cricetulus griseus)) (UniProt G3I8R9).
The target of assay [4] is hamster BiP T518E (His6-tagged) (Chinese hamster (Cricetulus griseus)) (UniProt G3I8R9).

With “hamster BiP E201G (His6-tagged) (from UniProt G3I8R9 19-654)”, in assay [1], the binding result is reported as “binds”.
For the substance “hamster BiP T366A (His6-tagged) (from UniProt G3I8R9 19-654)”, the binding entry in assay [2] was “binds”.
Take “hamster BiP T518A (His6-tagged) (from UniProt G3I8R9 19-654)”: in assay [3], the binding result is reported as “binds”.
As for “hamster BiP T518E (His6-tagged) (from UniProt G3I8R9 19-654)”, the binding entry in assay [4] is “binds”.
